# Primary screen of a compound library

By UniProt entry, the sequences of proteins in these tests, tags left out.
UniProt P9WPC5, whole entry: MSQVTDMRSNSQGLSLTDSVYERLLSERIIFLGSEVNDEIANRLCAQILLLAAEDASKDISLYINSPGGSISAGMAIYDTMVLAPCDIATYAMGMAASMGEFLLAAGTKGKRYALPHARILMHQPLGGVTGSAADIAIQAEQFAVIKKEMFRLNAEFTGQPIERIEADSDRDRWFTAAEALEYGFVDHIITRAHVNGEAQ
UniProt P9WPC3, whole entry partner: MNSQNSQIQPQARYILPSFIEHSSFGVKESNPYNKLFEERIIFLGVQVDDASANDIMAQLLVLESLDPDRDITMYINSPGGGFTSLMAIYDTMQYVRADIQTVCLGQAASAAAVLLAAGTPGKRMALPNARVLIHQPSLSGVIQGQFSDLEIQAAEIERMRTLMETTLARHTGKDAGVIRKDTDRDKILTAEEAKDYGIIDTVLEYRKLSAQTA
UniProt P9WNZ1, whole entry: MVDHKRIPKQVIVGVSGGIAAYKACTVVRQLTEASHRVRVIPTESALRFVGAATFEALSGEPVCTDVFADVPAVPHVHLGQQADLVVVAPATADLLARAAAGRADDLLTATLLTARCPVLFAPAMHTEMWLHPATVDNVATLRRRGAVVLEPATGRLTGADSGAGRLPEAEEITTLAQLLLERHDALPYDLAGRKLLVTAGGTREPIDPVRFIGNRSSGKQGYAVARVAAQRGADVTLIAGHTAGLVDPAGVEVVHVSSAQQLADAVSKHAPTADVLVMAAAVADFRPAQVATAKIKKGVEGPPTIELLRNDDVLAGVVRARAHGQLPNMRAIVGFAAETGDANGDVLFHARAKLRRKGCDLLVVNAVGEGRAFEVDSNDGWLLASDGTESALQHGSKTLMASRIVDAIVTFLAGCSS

From ChEMBL document CHEMBL3988442, “University of Dundee, Small-Polar-MMV Screening Library” (2021).

A: 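ClpP1P2, Mycobacterium tuberculosis (UniProt P9WPC5 and UniProt P9WPC3). Protease assay of ClpP1P2, read by the AMC dye that it sets free. Compounds at 50 µM. Higher reads as stronger inhibition, judged from the few compounds that gave an IC50. Most other retested compounds had strongly negative values. Of about 69,000 compounds tested this way, about 10 (0.015%) reached 50% or more in at least one test.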
B: 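Enzyme assay of CoaBC with a phosphate dye (Biomol Green) read at 650 nm. Target: Coenzyme A biosynthesis protein CoaBC, Mycobacterium tuberculosis (UniProt P9WNZ1). Tested at 30 µM. Direction is inferred from only a few compounds that gave an IC50; most scored high, so higher reads as stronger inhibition. Most strong results did not repeat in a second test. About 67,000 compounds were tested under these conditions; 0.06% (about 40) showed 50% or more at least once.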

The filed quantity is “Percent Effect” (%).
The record does not define 0% and 100%; most values in the screen are far below 50% and negative numbers occur (in some assays of this library far below -100).
The compounds are a random part of those screened.

- CN(c1ncc(S(N)(=O)=O)s1)C1CCC1 : A: -0.06706%; B: -1.351%
- CN(CCO)c1nc(-c2ccccn2)nc2c1CCNC2 : A: -18%; B: -17.13%
- CC(C)CC(=O)NCc1cccc(OCCN(C)C2CCOCC2)c1 : A: -5.564%; B: -5.769%
- COc1ccc(S(=O)(=O)Nc2cnc(N(C)C)nc2)cc1 : A: -25.73%; B: 1.937%
- Fc1ccc(CN[C@@H]2COC[C@H]2c2ccc(F)cc2)cc1 : A: -11.19%; B: 4.54%
- CN1CCCN(C(=O)c2cc(-c3cc[nH]n3)n3ccccc23)CC1 : A: -105.3%; B: -31.35%
- CCOCCN1CCN(CC(=O)N2CCC2)CC1CC (stereo not given) : A: 4.462%; B: -5.839%
- O=C(NCCCc1nc(=O)[nH][nH]1)c1ccc(Cl)cn1 : A: -6.877%; B: 0.7576%
- O=C(CNc1cc(-n2cnnn2)ccc1F)NCc1ccccc1 : A: -8.661%; B: 3.201%
- Cc1cc(N2CCN(Cc3cn(C)nc3C)CC2)cc(C2CCNC2)n1 (stereo not given) : A: 4.467%; B: 6.307%
- COCC1CN(c2ccc(C#N)c(Cl)c2)CCO1 (stereo not given) : A: -3.393%; B: 1.603%
- NC(=O)c1cc(C2CCCN(CCc3ccc4c(c3)CCO4)C2)n[nH]1 (stereo not given) : A: -8.029%; B: 7.654%
- O=C(Nc1cccnc1)C1CCN(c2cc(-n3ccnc3)ncn2)CC1 : A: 5.294%; B: 2.748%
- CC(OCC(F)(F)F)C(=O)Nc1ccc(-n2cncn2)nc1 (stereo not given) : A: 14.55%; B: 5.385%
- O=C(CN1CCCC(c2ccn[nH]2)C1)N1CCCc2ccccc21 (stereo not given) : A: -12.3%; B: 2.675%
- Cn1nnnc1SC1CCc2ccccc2NC1=O (stereo not given) : A: -11.45%; B: 1.899%
- CCS(=O)(=O)N1CCC2(CN(c3ccsc3)C(=O)CN2C)C1 (stereo not given) : A: -1.226%; B: 5.25%
- O=C(c1cccc2ccnn12)N1CCCC1Cn1cccn1 (stereo not given) : A: -0.6643%; B: 10.93%
- O=C(Nc1ccc(Cl)cn1)C1CCCN(Cc2ccccn2)C1 (stereo not given) : A: 7.933%; B: 9.664%
- Cc1nc(NC(=O)CCc2c(C)nc3cc(O)nn3c2C)sc1C : A: -6.221%; B: 6.065%
- O=S(=O)(NCC1CCOC1)N1CCc2ccccc2C1 (stereo not given) : A: 5.066%; B: 0.9804%
- CCC(C)(NCc1ncc(C(C)C)o1)c1nccs1 (stereo not given) : A: -3.807%; B: 1.499%
- O=C(Nc1ncc[nH]1)c1cc(-c2cccnc2)n[nH]1 : A: -25.5%; B: -0.7264%
- CCN1CC(COC(=O)c2ccccc2Cl)CC1=O (stereo not given) : A: 12.51%; B: -4.464%
- O=C(CCCOCc1ccccc1)N1CCCC(n2cncn2)C1 (stereo not given) : A: -15.4%; B: 5.704%
- CCCNC1(c2ccc(Cl)cc2)CCOCC1 : A: 8.936%; B: -1.364%
- Clc1ccc(CN2CCC(C3CCN(Cc4cccnc4)CC3)C2)cc1 (stereo not given) : A: -9.351%
- CC1COCCN1C(=O)Cc1cc(Cl)c2c(c1)OCCCO2 (stereo not given) : A: -5.949%; B: -0.5834%
- Cc1ccc(-c2nc(CN3CCOC(Cn4cncn4)C3)cs2)o1 (stereo not given) : A: -6.47%; B: -0.2445%
- COc1ccccc1C(C)NC(=O)NCCC(=O)NC1CCCCC1 (stereo not given) : A: -10.35%; B: -3.435%
- OCc1cn([C@@H]2c3ccccc3C3(CCNCC3)[C@H]2O)nn1 : A: -0.8424%; B: -7.692%
- COc1cc(CN(C)CCc2ccncc2)c(SC)cc1OC : A: -3.474%; B: -2.526%
- Cc1occc1C(=O)NCc1cccnc1N(C)C : A: -26.97%; B: 6.65%
- Cc1cc(C(=O)N2CCN(Cc3ccsc3)CC2)c(C)n1C1CC1 : A: -49.63%; B: 2.089%
- Cc1ccc(N2CCCN(C(=O)CCc3ccsc3)CC2)nn1 : A: -0.7685%; B: 2.675%
- CC1CCN(S(=O)(=O)N2CCCN(CC3CCCO3)CC2)CC1 (stereo not given) : A: -4.563%; B: 18.49%
- Cc1noc(C2CCC3(CCN(C(=O)c4c(C)noc4C)CC3)O2)n1 (stereo not given) : A: -10.14%; B: -9.251%
- CC(NC(=O)Nc1ccccc1CN1CCOCC1)c1nnc(N)s1 (stereo not given) : A: 9.756%; B: 6.438%
- CCc1nnc(CN2CCCC(c3cc(C(N)=O)[nH]n3)C2)o1 (stereo not given) : A: 2.182%; B: 8.114%
- COc1c(C)cnc(CNC(=O)c2cnc3onc(C)c3c2)c1C : A: -0.7826%; B: 15.08%
- Cc1ccc(CN2CCC3(CC2)C(=O)N(CCO)CCN3C)o1 : A: -9.534%; B: 6.361%
- O=C(NC1CC1)C1=CC2(CCN(CCO)CC2)c2ccccc21 : A: -6.602%; B: 3.99%

Repeated from the top, 5 entries:

structure	A	B
CN(c1ncc(S(N)(=O)=O)s1)C1CCC1	-0.06706	-1.351
CN(CCO)c1nc(-c2ccccn2)nc2c1CCNC2	-18	-17.13
CC(C)CC(=O)NCc1cccc(OCCN(C)C2CCOCC2)c1	-5.564	-5.769
COc1ccc(S(=O)(=O)Nc2cnc(N(C)C)nc2)cc1	-25.73	1.937
Fc1ccc(CN[C@@H]2COC[C@H]2c2ccc(F)cc2)cc1	-11.19	4.54